The other results are listed elsewhere or left out. Repeats are few or missing, and single values can be far off.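 Cells were imaged in 1,536-well plates, and nuclei stained with an antibody against cleaved PARP were counted against all DNA-stained nuclei to give the apoptosis fraction. Screening doses were chosen to leave most cells alive, and resting and induced cleaved-PARP levels differ strongly between cell lines.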

Results on 6 compounds are retold here after the supplement of paper PMC4604168 (melanoma cell lines).

The subject of this assay is CBRC008 (line from a melanoma biopsy). Briefly: cleaved PARP positive nuclei fraction relative to DMSO control; melanoma cells; higher = more apoptosis. As to conditions: library dose: low library concentration; 72 h.
Regarding `Cn1c(=O)n(-c2ccc(C(C)(C)C#N)cc2)c2c3cc(-c4cnc5ccccc5c4)ccc3ncc21` + O=C(O)c1ccc(-c2c[nH]c3ncc(-c4ccccc4)cc23)cc1C1CCCC1 [GSK650394] (first compound 0.004 µM, partner dose 0.16 µM), the “cleaved PARP positive nuclei fraction” value was determined as 132%.
Then `O=C(O)c1ccc2c(c1)nc(Nc1cccc(Cl)c1)c1ccncc12` + O=C(O)c1ccc(-c2c[nH]c3ncc(-c4ccccc4)cc23)cc1C1CCCC1 [GSK650394] (first compound 0.4 µM, partner dose 0.16 µM), with 283%; and `CC(C)C[C@H](NC(=O)[C@H](Cc1ccccc1)NC(=O)c1cnccn1)B(O)O` [Bortezomib] + O=C(CCCCCCC(=O)Nc1ccccc1)NO [vorinostat] (first compound 0.001 µM, partner dose 0.08 µM), with 2090%; and `O=C(O)c1ccc2c(c1)nc(Nc1cccc(Cl)c1)c1ccncc12` + O=C(Nc1cccc(Cl)c1)Nc1ncc(CCNc2ncnc3ccsc23)s1 [SNS314] (first compound 0.4 µM, partner dose 0.0008 µM), with 111%.
Consider `Nc1nc(F)nc2c1ncn2[C@@H]1O[C@H](CO)[C@@H](O)[C@@H]1O` [fludarabine] + C=CCn1c(=O)c2cnc(Nc3ccc(N4CCN(C)CC4)cc3)nc2n1-c1cccc(C(C)(C)O)n1 [MK1775] (first compound 0.2 µM, partner dose 0.02 µM), for which the “cleaved PARP positive nuclei fraction” value came out at 88.5%.
Consider `Nc1ccn([C@@H]2O[C@H](CO)[C@@H](O)C2(F)F)c(=O)n1` [gemcitabine] + COc1cc(Nc2ncc(F)c(Nc3ccc4c(n3)NC(=O)C(C)(C)O4)n2)cc(OC)c1OC [Tamatinib] (first compound 0.0004 µM, partner dose 0.4 µM), for which the “cleaved PARP positive nuclei fraction” value stood at 366%.
